Data on 68 targets can be found in the supplement of paper PMC12067093, “Discovery and optimisation of a covalent ligand for TRIM25 and its application to targeted protein ubiquitination” (Chemical Science, 2025).

Amino acid sequences for entries named in this document (tags omitted). A change or cut given only in a name is not applied to a line headed by its entry.
UniProt P11047: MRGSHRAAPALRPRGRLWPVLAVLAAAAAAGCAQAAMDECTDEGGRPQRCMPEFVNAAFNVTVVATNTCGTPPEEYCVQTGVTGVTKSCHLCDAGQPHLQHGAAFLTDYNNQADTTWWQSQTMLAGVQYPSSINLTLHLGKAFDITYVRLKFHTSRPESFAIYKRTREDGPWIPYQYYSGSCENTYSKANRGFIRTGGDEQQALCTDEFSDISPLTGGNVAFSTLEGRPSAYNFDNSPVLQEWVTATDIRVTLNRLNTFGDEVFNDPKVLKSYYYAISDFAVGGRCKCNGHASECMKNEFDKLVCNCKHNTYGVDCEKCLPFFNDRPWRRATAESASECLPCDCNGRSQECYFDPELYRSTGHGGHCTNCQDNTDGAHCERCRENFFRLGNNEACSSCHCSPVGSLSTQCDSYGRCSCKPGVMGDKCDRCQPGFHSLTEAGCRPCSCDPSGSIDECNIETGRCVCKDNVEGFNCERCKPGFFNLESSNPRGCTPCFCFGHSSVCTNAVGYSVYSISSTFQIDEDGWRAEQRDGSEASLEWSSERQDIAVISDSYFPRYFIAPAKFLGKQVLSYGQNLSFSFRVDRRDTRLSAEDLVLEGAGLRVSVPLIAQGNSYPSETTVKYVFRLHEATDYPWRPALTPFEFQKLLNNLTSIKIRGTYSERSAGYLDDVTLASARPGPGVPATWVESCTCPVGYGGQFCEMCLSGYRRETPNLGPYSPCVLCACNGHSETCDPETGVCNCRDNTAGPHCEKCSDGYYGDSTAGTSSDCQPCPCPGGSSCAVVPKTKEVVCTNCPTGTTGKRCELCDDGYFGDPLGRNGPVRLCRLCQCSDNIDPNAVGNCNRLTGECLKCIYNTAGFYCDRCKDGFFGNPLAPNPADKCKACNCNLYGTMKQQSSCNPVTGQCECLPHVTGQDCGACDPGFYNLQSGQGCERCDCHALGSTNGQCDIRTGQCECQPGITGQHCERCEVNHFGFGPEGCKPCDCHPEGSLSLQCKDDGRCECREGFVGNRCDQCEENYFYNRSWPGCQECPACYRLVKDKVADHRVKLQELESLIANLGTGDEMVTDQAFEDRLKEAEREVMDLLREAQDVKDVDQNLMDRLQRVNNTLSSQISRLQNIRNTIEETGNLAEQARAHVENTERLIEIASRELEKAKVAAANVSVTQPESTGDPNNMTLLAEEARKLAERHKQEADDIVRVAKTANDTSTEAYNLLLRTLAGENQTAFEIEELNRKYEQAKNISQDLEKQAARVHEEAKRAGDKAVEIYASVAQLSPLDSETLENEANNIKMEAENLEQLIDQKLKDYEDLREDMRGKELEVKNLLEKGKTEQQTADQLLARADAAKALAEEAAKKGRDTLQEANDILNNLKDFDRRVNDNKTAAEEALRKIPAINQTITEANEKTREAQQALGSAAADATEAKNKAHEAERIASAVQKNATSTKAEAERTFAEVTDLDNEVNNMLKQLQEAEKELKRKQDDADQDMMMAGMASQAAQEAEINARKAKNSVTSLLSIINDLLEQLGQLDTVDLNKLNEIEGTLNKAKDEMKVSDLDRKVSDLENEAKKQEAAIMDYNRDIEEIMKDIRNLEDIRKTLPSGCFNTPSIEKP
UniProt Q9NS86: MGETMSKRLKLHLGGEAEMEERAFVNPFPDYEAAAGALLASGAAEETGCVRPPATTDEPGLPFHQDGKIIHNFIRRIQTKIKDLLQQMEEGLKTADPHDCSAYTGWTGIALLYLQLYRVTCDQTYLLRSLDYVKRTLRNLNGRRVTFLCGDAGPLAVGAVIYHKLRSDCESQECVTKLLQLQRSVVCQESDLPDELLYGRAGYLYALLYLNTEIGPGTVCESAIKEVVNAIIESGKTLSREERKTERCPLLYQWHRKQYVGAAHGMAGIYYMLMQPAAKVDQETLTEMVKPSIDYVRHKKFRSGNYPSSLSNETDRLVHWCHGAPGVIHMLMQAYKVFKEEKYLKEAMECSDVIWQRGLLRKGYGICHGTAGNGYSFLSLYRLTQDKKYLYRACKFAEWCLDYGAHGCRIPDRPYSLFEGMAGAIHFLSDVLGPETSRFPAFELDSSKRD
UniProt P50748: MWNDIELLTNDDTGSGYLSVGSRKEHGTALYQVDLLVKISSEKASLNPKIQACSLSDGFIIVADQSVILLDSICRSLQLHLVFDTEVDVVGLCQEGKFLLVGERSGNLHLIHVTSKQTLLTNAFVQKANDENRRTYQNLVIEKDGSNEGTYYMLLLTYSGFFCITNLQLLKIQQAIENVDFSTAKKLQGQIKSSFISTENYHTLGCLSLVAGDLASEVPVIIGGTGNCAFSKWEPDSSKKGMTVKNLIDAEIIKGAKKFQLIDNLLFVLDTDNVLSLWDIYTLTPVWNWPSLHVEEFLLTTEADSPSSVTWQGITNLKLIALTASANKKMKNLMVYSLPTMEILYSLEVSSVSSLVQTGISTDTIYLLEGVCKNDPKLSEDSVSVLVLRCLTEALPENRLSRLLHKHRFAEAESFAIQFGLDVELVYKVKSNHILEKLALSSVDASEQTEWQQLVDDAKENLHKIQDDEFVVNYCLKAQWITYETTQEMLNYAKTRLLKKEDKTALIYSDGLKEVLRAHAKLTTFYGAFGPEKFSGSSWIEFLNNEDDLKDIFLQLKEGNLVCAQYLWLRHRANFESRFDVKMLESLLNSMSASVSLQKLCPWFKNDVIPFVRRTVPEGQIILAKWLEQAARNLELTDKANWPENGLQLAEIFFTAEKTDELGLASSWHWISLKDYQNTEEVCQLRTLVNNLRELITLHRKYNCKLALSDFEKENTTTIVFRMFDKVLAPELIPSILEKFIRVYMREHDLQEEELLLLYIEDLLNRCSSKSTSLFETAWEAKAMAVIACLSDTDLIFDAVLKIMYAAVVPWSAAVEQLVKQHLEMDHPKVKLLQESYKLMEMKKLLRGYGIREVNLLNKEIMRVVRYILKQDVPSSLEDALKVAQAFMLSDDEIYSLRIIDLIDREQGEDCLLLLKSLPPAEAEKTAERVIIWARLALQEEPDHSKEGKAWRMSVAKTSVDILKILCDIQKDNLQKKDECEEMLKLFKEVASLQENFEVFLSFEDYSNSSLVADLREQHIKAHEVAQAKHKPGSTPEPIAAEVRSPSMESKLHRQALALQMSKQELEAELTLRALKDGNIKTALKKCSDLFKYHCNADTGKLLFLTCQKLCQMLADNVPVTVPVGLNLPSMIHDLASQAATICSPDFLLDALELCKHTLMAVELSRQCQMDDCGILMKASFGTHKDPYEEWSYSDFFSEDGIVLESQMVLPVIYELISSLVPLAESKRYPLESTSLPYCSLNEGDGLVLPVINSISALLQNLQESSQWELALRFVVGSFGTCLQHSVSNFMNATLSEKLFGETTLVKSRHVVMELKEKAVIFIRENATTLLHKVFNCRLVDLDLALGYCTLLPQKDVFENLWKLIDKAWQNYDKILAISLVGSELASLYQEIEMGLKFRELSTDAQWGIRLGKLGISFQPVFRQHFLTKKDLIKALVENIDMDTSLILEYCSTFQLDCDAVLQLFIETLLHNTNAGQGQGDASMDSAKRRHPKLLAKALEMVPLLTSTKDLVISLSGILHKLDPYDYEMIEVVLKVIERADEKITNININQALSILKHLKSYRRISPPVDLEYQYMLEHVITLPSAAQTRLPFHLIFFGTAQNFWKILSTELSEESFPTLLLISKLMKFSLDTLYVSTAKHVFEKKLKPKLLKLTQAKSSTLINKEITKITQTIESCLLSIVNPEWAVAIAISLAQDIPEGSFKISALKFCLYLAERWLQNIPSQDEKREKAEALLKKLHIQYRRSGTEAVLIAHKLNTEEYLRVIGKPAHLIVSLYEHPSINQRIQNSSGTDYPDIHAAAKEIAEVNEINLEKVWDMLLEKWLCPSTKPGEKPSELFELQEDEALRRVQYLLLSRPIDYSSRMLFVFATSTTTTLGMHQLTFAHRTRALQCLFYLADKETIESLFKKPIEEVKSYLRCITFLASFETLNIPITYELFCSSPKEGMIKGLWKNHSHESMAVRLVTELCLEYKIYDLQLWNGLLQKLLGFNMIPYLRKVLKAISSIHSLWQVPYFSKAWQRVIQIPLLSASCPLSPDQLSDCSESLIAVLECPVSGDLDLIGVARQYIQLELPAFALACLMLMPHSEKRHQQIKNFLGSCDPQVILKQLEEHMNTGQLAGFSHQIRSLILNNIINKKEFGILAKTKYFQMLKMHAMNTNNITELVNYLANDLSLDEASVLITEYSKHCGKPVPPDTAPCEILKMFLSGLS
UniProt Q99661: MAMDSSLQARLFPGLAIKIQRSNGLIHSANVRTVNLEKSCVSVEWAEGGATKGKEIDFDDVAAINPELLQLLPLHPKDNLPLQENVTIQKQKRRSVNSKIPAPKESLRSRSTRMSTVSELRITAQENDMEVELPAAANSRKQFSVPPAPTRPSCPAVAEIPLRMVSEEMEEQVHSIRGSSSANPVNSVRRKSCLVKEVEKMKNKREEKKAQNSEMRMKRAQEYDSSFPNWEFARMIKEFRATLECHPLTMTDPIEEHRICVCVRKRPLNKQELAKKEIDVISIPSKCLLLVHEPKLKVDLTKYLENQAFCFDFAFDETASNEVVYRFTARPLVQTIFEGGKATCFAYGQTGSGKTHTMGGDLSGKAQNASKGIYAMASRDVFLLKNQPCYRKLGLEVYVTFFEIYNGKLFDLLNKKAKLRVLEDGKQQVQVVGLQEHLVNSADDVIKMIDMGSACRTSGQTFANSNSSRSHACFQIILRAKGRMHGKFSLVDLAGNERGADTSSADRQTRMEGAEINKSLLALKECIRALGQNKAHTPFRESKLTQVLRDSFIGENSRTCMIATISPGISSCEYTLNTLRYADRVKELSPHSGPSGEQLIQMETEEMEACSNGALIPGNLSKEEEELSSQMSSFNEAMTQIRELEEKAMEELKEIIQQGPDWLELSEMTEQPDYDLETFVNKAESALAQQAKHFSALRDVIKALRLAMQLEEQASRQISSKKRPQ
UniProt Q969R5, whole entry, looked up: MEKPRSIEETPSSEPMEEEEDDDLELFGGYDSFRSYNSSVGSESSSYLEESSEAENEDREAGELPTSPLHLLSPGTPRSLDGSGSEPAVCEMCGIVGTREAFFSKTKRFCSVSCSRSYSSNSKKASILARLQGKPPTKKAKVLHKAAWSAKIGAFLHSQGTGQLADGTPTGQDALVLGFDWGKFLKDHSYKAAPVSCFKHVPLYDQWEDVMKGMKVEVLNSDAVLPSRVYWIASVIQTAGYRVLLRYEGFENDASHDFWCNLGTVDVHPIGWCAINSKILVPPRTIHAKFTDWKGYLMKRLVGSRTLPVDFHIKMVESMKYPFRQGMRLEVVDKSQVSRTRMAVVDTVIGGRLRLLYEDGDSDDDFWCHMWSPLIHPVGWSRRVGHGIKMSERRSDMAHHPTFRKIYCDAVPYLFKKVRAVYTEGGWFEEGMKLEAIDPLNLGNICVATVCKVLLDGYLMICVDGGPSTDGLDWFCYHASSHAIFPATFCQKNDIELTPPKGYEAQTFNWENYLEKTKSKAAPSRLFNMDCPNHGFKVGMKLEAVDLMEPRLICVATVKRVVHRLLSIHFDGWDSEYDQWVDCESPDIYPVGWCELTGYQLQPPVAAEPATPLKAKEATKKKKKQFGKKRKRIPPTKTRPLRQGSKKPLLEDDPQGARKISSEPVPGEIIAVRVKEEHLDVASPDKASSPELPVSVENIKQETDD
UniProt Q96EM0: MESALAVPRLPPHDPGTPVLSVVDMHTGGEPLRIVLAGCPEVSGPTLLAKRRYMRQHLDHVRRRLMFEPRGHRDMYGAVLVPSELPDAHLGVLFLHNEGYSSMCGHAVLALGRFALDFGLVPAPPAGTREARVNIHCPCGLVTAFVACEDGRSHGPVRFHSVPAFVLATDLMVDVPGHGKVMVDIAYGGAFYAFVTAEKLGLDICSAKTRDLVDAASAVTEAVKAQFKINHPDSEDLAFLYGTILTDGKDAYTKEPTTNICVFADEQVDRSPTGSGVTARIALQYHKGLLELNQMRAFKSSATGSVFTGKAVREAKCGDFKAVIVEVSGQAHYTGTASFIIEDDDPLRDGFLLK
UniProt O43813, whole entry, looked up: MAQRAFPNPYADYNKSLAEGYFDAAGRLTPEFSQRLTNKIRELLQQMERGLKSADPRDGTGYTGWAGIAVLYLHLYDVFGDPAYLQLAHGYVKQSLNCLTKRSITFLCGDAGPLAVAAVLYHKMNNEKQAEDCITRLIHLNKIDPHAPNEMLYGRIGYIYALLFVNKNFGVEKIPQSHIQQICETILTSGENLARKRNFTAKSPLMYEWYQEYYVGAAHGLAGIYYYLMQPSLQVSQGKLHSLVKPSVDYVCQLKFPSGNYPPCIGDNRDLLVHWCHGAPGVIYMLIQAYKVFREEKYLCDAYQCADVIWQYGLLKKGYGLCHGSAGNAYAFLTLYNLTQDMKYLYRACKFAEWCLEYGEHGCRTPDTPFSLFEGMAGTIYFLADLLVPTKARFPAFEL
UniProt Q9Y2Q5, whole entry, looked up: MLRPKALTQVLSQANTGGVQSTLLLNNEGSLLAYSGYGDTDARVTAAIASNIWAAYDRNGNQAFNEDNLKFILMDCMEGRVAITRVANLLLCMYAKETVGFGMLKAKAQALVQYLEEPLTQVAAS

Compound in the assay: CC1Cc2ccccc2N1C(=O)C1CCCN(C1)C(=O)CCl (mixture of isomers) [TRIM25 ligand 11 (diastereomer mixture)]
Nature of the assay: probe-labelled cysteine peptide fold change vs DMSO (competition) (log2 fold change); higher = less target engagement (more negative = stronger competition). The conditions noted are these: THP-1, incubation time: 4 h.

The other results are listed elsewhere or left out.
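Also: competitive chemoproteomic profiling in live THP-1 cells with an iodoacetamide desthiobiotin (IA-DTB) probe, comparing probe-labelled peptide intensities in compound-treated cells against DMSO-treated controls.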

In the case of “KYAT3_Q6YP21_337_RMDDPECYFNSLPK (UniProt Q6YP21)”, the “probe-labelled cysteine peptide fold change” value reads like this: (10 µM) 0.0624; (50 µM) 0.118.
On the same counts, the results for “LAMC1_P11047_477_CKPGFFNLESSNPR (UniProt P11047)” are 0.0155 and 0.286.
On the same counts, the results for “LANCL2_Q9NS86_248_CPLLYQWHR (UniProt Q9NS86)” are -0.00504 and 0.0157.
On the same counts, the results for “KNTC1_P50748_1825_WLCPSTKPGEKPSELFELQEDEALRR (UniProt P50748)” are 0.147 and 0.0685.
Turning to “LAP3_P28838_445_QVVDCQLADVNNIGK (UniProt P28838)”, the “probe-labelled cysteine peptide fold change” value (10 µM) was 0.106 and the “probe-labelled cysteine peptide fold change” value (50 µM) was found to be 0.131.
For “L3MBTL3_Q96JM7_389_KNPSFICVATVTDMVDNR (UniProt Q96JM7)”, in that order: 0.101 and -0.0593.
For “KIFC1_Q9BW19_95_CSTAIATGLK (UniProt Q9BW19)”, in that order: -0.169 and -0.282.
On the same counts, the results for “KPNB1_Q14974_223_HFIMQVVCEATQCPDTR (UniProt Q14974)” are -0.453 and -0.386.
For “KIF3A_Q9Y496_230_SHAIFTITIECSEK (UniProt Q9Y496)”, the “probe-labelled cysteine peptide fold change” value is, setting by setting: (10 µM) 0.112; (50 µM) -0.0259.
On the same counts, the results for “KIF2C_Q99661_245_ATLECHPLTMTDPIEEHR (UniProt Q99661)” are -0.0596 and -0.0795.
In the case of “LCP1_P13796_206_KKLTPFTIQENLNLALNSASAIGCHVVNIGAEDLK (UniProt P13796)”, the “probe-labelled cysteine peptide fold change” value is -0.238 (10 µM) and -0.228 (50 µM).
On the same counts, the results for “L3MBTL2_Q969R5_554_LICVATVK (UniProt Q969R5)” are 0.51 and 0.04.
On the same counts, the results for “LANCL2_Q9NS86_149_RVTFLCGDAGPLAVGAVIYHK (UniProt Q9NS86)” are -0.359 and 0.0573.
On the same counts, the results for “KMT2B_Q9UMN6_1447_QLHPGPCGLQAVSQR (UniProt Q9UMN6)” are 0.063 and 0.164.
In the case of LASP1_Q14847_5_MNPNCAR (UniProt Q14847), the “probe-labelled cysteine peptide fold change” value reads like this: (10 µM) 0.0856; (50 µM) 0.409.
In the case of “L3MBTL2_Q969R5_368_LLYEDGDSDDDFWCHMWSPLIHPVGWSR (UniProt Q969R5)”, the “probe-labelled cysteine peptide fold change” value (10 µM) came to 0.11 and the “probe-labelled cysteine peptide fold change” value (50 µM) was -0.0453.
For “L3HYPDH_Q96EM0_39_IVLAGCPEVSGPTLLAK (UniProt Q96EM0)”, the “probe-labelled cysteine peptide fold change” value reads like this: (10 µM) 0.093; (50 µM) 0.0603.
For “LCMT1_Q9UIC8_250_QCDLAGVETCK (UniProt Q9UIC8)”, in that order: 0.0214 and 0.123.
On the same counts, the results for “L2HGDH_Q9H9P8_272_ISELSGCTPDPR (UniProt Q9H9P8)” are -0.0945 and -0.0575.
On to “LAIR1_Q6GTX8_101_CIYYKPPK (UniProt Q6GTX8)”, for which the “probe-labelled cysteine peptide fold change” value is, setting by setting: (10 µM) 0.0604; (50 µM) 0.112.
As for “KTI12_Q96EK9_7_PLVVFCGLPYSGK (UniProt Q96EK9)”, the “probe-labelled cysteine peptide fold change” value (10 µM) is -0.201 and the “probe-labelled cysteine peptide fold change” value (50 µM) worked out at 0.109.
Turning to “LAGE3_Q14657_113_WKAEDCR (UniProt Q14657)”, the “probe-labelled cysteine peptide fold change” value (10 µM) was -0.183 and the “probe-labelled cysteine peptide fold change” value (50 µM) was found to be 0.128.
As for “KIF2C_Q99661_560+572_TCMIATISPGISSCEYTLNTLR (UniProt Q99661)”, the “probe-labelled cysteine peptide fold change” value reads like this: (10 µM) -0.453; (50 µM) -0.089.
For “KIF5B_P33176_65_VFQSSTSQEQVYNDCAK (UniProt P33176)”, in that order: 0.0509 and -0.00101.
On the same counts, the results for “LANCL1_O43813_183_IPQSHIQQICETILTSGENLAR (UniProt O43813)” are 0.188 and 0.223.
On the same counts, the results for “LAT2_Q9GZY6_160_TTETGAQQEGIGGLCR (UniProt Q9GZY6)” are 0.0117 and -0.118.
For the target “LDHD_Q86WU2_274_LHPAPEATVAATCAFPSVQAAVDSTVHILQAAVPVAR (UniProt Q86WU2)”, the “probe-labelled cysteine peptide fold change” value is, setting by setting: (10 µM) 0.0135; (50 µM) 0.161.
Take “KNL1_Q8NG31_253_CSAFPDVPDK (UniProt Q8NG31)”: the “probe-labelled cysteine peptide fold change” value reads like this: (10 µM) -0.14; (50 µM) -0.11.
For the target “L3HYPDH_Q96EM0_139+148_VNIHCPCGLVTAFVACEDGR (UniProt Q96EM0)”, the “probe-labelled cysteine peptide fold change” value reads like this: (10 µM) 0.0922; (50 µM) 0.0573.
For “KTN1_Q86UP2_303_TMMFSEDEALCVVDLLK (UniProt Q86UP2)”, in that order: 0.0102 and -0.253.
For “KMT2C_Q8NEZ4_417_GYHTFCLQPVMK (UniProt Q8NEZ4)”, in that order: 0.0207 and 0.0109.
On the same counts, the results for “KIF20B_Q96Q89_1642_HPGCTTPVTVK (UniProt Q96Q89)” are -0.0424 and 0.0715.
Take “LARP4B_Q92615_590_EPSVPASCAVSATYER (UniProt Q92615)”: the “probe-labelled cysteine peptide fold change” value reads like this: (10 µM) -0.00725; (50 µM) -0.225.
“LARP1_Q6PKG0_1054_RCPSQSSSR (UniProt Q6PKG0)”: the “probe-labelled cysteine peptide fold change” value amounted to 0.05 (10 µM) and 0.105 (50 µM).
For “KLHL7_Q8IXQ5_44_TLCDVILMVQER (UniProt Q8IXQ5)”, in that order: 0.0233 and 0.341.
For “L3HYPDH_Q96EM0_137+148_VNIHCPCGLVTAFVACEDGR (UniProt Q96EM0)”, in that order: 0.205 and -0.12.
On the same counts, the results for “LAMC1_P11047_367_STGHGGHCTNCQDNTDGAHCER (UniProt P11047)” are 0.451 and 0.0296.
With “KIF4A_O95239_965_CQDEELEK (UniProt O95239)”, the “probe-labelled cysteine peptide fold change” value reads like this: (10 µM) 0.0357; (50 µM) -0.113.
For “LANCL2_Q9NS86_350_EAMECSDVIWQR (UniProt Q9NS86)”, in that order: -0.0151 and -0.123.
For “LANCL2_Q9NS86_367_GYGICHGTAGNGYSFLSLYR (UniProt Q9NS86)”, in that order: 0.0845 and -0.0445.
For “LAS1L_Q9Y4W2_316_GVTCENR (UniProt Q9Y4W2)”, in that order: -0.507 and -0.162.
For the target “KIF5B_P33176_174_FVCSPDEVMDTIDEGK (UniProt P33176)”, the “probe-labelled cysteine peptide fold change” value runs as follows: (10 µM) 0.094; (50 µM) -0.199.
For “LDHA_P00338_293_DDVFLSVPCILGQNGISDLVK (UniProt P00338)”, in that order: 0.165 and 0.151.
For “L3MBTL2_Q969R5_531_LFNMDCPNHGFK (UniProt Q969R5)”, in that order: -0.0671 and -0.122.
For “KLHL6_Q8WZ60_539_ALYAYSPLEDSWCLVTQLSHER (UniProt Q8WZ60)”, in that order: 0.286 and 0.325.
Turning to “KPNA6_O60684_422_YLVSLGCIK (UniProt O60684)”, the “probe-labelled cysteine peptide fold change” value is -0.044 (10 µM) and 0.154 (50 µM).
On the same counts, the results for “KNTC1_P50748_980_KDECEEMLK (UniProt P50748)” are -0.0221 and -0.13.
On the same counts, the results for “KIF21A_Q7Z4S6_1603_DWVCALGVVPDHPVLLSGCR (UniProt Q7Z4S6)” are 0.0441 and -0.0516.
On the same counts, the results for KLC1_Q07866_559_ASFCGK (UniProt Q07866) are 0.0458 and -0.0774.
As to “KNL1_Q8NG31_1579_QVIQTHVNAGEAPDPVITSNVPCFHSIKPNLNNLNGK (UniProt Q8NG31)”, the “probe-labelled cysteine peptide fold change” value is, setting by setting: (10 µM) -0.0213; (50 µM) 0.0166.
On the same counts, the results for “LARP1_Q6PKG0_864_TASISSSPSEGTPTVGSYGCTPQSLPK (UniProt Q6PKG0)” are -0.0729 and -0.161.
For “LAMTOR2_Q9Y2Q5_76_FILMDCMEGR (UniProt Q9Y2Q5)”, in that order: -0.0173 and 0.16.
For the target “LAMC1_P11047_804_RCELCDDGYFGDPLGR (UniProt P11047)”, the “probe-labelled cysteine peptide fold change” value by setting is: (10 µM) -0.0583; (50 µM) 0.389.
For “KLHDC4_Q8TBB5_120_CAHQAVVVPQGGGQLWVFGGEFASPNGEQFYHYK (UniProt Q8TBB5)”, in that order: -0.0549 and -0.128.
“LCP1_P13796_283_WANYHLENAGCNK (UniProt P13796)”: the “probe-labelled cysteine peptide fold change” value is, setting by setting: (10 µM) 0.0121; (50 µM) 0.146.
For “LARS_Q9P2J5_83+84_CCLFPFGLHCTGMPIK (UniProt Q9P2J5)”, in that order: 0.0917 and -0.0459.
On the same counts, the results for “LDHD_Q86WU2_429_EDLNASGLTGSIVGHVGDGNFHCILLVNPDDAEELGR (UniProt Q86WU2)” are -0.0888 and -0.0226.
For the target “LANCL1_O43813_108_SITFLCGDAGPLAVAAVLYHK (UniProt O43813)”, the “probe-labelled cysteine peptide fold change” value is -0.101 (10 µM) and -0.111 (50 µM).
On to “LCOR_Q96JN0-3_304_ILEGQTTGQEQDTNVNICEDGK (UniProt Q96JN0)”, for which the “probe-labelled cysteine peptide fold change” value (10 µM) stood at 0.173 and the “probe-labelled cysteine peptide fold change” value (50 µM) is 0.0886.
For “KIFC1_Q9BW19_485_KGQGGECEIR (UniProt Q9BW19)”, in that order: 0.0549 and 0.0451.
For “LARP4_Q71RC2_76_EYEVMYSSSCETTR (UniProt Q71RC2)”, in that order: 0.23 and -0.221.
In the case of “KNL1_Q8NG31_1301_AQVESCQLNNR (UniProt Q8NG31)”, the “probe-labelled cysteine peptide fold change” value runs as follows: (10 µM) -0.0981; (50 µM) -0.124.
On the same counts, the results for “LACTB2_Q53H82_90_DHSGGIGDICK (UniProt Q53H82)” are -0.195 and -0.0905.
On to “KIFC1_Q9BW19_557_GLQCGAPLSLVDLAGSER (UniProt Q9BW19)”, for which the “probe-labelled cysteine peptide fold change” value by setting is: (10 µM) 0.0546; (50 µM) 0.0532.
“KLHL22_Q53GT1_572+589_DCWEEGPQLDNSISGLAACVLTLPR (UniProt Q53GT1)”: the “probe-labelled cysteine peptide fold change” value by setting is: (10 µM) 0.0705; (50 µM) 0.112.
As to “KITLG_P21583_114_LVNIVDDLVECVK (UniProt P21583)”, the “probe-labelled cysteine peptide fold change” value runs as follows: (10 µM) 0.184; (50 µM) -0.0652.
For the target “LAMP5_Q9UJQ1_182_SYECQAQQTISLASSDPQK (UniProt Q9UJQ1)”, the “probe-labelled cysteine peptide fold change” value reads like this: (10 µM) 0.355; (50 µM) 0.0549.
For “KIF2C_Q99661_287_CLLLVHEPK (UniProt Q99661)”, in that order: 0.0243 and 0.0609.
